From the supplement of paper PMC11732987, “Enantioselective OTUD7B fragment discovery through chemoproteomics screening and high-throughput optimisation” (Communications Chemistry, 2025)
The other results are listed elsewhere or left out. The data scatter; read single values as rough.

Amino acid sequences for entries named in this document (tags omitted). A change or cut given only in a name is not applied to a line headed by its entry. Residues count along the entry.
UniProt Q12923: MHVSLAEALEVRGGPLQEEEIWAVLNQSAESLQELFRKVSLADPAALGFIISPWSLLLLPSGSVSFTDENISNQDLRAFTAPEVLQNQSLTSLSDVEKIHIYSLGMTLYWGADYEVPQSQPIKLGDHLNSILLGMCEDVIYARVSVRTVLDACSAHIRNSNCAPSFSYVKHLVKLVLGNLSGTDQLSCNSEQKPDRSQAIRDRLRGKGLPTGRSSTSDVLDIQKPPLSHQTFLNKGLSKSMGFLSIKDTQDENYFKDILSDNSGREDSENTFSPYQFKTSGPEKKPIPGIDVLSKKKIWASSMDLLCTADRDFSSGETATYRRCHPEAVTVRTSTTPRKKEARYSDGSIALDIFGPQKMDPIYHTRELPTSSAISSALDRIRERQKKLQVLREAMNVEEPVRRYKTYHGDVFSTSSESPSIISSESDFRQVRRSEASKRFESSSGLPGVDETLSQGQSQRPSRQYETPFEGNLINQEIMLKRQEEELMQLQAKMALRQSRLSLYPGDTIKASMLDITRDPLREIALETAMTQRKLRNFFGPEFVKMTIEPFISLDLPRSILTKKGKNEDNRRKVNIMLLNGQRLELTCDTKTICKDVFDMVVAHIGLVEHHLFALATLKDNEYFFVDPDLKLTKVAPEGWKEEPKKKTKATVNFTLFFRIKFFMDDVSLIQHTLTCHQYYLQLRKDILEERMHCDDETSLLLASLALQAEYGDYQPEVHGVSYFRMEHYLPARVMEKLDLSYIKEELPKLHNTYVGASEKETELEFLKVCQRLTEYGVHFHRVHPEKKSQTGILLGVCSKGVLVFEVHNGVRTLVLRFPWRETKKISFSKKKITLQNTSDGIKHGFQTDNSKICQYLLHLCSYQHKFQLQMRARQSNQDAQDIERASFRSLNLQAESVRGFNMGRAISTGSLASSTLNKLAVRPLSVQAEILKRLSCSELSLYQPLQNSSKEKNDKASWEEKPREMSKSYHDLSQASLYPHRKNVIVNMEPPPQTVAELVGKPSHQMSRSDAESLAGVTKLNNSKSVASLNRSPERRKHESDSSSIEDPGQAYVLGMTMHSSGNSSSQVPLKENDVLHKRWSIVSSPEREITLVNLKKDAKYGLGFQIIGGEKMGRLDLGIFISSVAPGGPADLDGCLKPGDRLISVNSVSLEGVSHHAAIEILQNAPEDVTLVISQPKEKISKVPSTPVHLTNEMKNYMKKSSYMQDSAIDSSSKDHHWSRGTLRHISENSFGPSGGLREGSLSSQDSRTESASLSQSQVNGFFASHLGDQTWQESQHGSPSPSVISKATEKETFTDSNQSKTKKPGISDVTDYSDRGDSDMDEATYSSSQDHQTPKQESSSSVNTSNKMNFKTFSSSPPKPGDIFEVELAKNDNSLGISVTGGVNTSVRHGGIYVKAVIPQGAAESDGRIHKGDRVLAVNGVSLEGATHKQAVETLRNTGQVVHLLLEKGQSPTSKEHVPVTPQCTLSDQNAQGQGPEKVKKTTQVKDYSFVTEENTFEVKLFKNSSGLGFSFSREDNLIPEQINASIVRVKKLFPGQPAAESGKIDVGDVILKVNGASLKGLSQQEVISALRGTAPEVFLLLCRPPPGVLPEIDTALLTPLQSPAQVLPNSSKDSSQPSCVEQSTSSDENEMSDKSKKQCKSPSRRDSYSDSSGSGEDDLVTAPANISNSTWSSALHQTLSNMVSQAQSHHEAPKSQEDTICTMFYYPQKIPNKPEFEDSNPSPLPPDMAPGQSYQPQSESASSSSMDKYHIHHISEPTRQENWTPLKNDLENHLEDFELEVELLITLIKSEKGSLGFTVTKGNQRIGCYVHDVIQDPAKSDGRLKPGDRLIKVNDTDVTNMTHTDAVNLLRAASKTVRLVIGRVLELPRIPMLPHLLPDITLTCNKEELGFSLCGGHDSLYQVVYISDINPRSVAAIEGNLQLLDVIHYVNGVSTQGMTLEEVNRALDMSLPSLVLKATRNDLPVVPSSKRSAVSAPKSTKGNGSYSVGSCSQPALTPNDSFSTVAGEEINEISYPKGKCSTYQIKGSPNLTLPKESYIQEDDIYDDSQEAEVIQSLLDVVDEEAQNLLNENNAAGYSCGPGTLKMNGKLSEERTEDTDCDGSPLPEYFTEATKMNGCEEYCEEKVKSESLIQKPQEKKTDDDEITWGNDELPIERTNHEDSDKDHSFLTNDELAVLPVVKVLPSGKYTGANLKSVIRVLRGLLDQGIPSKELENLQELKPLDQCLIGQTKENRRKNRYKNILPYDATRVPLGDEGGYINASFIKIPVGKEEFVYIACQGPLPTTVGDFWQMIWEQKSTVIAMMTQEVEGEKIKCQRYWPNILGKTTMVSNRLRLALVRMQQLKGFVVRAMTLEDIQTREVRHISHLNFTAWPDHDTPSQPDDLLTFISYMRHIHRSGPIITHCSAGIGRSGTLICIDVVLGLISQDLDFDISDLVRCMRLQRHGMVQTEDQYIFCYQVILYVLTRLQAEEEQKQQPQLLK
UniProt Q9Y620: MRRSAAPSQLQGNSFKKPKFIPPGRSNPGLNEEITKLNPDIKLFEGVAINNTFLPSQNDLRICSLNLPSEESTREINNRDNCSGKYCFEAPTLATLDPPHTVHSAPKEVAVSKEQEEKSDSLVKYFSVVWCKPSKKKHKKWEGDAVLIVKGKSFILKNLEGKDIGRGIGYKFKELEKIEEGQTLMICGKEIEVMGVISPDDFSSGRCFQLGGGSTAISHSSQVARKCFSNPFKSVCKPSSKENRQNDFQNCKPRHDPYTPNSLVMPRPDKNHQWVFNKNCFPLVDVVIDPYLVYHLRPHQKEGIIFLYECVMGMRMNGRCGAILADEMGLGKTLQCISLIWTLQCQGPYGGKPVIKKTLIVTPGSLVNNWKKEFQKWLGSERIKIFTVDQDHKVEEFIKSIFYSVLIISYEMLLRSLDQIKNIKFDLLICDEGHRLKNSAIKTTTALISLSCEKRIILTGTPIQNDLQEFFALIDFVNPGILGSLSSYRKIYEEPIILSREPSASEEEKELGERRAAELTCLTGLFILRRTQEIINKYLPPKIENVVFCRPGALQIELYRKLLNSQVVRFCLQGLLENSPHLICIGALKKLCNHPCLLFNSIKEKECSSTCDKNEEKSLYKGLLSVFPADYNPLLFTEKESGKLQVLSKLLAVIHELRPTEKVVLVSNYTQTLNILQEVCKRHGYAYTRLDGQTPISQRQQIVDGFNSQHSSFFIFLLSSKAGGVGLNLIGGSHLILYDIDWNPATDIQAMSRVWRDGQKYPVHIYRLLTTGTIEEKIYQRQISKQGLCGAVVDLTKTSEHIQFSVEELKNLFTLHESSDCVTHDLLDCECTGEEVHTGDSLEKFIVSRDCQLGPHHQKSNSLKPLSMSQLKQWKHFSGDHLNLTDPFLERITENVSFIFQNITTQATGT
UniProt P35998: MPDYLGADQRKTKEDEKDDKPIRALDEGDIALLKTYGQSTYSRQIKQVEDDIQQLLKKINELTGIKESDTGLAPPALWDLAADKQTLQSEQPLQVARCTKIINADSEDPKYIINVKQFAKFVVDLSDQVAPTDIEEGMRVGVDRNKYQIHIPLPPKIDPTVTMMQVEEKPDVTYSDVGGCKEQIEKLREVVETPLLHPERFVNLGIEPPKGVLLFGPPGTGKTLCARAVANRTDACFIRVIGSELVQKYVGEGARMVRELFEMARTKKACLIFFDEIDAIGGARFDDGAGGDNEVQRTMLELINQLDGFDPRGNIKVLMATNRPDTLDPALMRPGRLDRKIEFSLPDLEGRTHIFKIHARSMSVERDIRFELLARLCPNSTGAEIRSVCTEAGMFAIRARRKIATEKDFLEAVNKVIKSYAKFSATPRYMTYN
UniProt Q9Y3T6: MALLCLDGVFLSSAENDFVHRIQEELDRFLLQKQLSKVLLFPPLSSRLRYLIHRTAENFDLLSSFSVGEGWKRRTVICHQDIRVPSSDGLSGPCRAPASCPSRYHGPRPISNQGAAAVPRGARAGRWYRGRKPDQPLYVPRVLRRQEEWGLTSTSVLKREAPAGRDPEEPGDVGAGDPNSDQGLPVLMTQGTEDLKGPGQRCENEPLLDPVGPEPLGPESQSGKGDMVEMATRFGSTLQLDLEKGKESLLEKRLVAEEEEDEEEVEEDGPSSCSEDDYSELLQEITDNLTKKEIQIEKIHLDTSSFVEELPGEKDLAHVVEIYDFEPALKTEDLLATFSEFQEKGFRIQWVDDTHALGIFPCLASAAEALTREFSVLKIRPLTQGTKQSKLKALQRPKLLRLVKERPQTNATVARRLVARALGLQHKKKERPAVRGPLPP
UniProt Q9Y3P9: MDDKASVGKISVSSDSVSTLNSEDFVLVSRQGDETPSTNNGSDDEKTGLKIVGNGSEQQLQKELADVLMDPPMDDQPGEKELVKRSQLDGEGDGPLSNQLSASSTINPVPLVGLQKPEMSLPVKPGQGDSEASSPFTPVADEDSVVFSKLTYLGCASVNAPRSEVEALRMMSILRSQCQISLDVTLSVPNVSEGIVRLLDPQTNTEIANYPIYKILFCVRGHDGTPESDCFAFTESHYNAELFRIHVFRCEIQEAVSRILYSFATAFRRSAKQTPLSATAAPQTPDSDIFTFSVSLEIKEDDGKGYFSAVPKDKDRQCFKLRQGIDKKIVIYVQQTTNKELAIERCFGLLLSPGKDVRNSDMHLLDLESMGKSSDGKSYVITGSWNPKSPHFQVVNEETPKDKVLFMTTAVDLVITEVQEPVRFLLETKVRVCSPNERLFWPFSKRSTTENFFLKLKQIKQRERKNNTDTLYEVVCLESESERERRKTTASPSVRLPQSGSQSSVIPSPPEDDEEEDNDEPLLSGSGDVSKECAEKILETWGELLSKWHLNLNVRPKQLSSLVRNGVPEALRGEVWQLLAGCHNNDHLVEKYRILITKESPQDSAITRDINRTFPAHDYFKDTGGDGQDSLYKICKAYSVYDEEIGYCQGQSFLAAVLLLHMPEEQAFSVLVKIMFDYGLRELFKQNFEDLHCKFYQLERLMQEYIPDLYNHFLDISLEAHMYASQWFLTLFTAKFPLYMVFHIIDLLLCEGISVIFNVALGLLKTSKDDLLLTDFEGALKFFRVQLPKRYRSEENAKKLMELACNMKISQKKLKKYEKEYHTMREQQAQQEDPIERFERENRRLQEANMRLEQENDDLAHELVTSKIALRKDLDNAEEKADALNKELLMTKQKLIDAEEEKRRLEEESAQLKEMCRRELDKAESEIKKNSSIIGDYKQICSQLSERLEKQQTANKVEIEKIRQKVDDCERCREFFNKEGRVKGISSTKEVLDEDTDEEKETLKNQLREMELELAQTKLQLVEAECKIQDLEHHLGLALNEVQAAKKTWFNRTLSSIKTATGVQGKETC
UniProt Q9Y520, 878-902: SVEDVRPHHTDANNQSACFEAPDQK
UniProt P60900: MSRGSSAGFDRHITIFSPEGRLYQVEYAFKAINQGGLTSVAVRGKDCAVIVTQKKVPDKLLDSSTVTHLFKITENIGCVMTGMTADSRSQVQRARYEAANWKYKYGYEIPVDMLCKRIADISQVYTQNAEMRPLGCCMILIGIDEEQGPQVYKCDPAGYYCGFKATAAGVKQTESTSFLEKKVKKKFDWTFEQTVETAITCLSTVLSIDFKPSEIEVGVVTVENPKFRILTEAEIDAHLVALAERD
UniProt Q96DA2: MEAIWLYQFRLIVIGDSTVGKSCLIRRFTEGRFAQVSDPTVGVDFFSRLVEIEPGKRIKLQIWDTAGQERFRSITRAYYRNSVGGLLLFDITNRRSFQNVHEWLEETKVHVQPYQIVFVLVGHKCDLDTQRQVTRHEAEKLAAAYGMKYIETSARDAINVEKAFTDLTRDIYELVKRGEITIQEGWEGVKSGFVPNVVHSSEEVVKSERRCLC
UniProt Q7Z6K3: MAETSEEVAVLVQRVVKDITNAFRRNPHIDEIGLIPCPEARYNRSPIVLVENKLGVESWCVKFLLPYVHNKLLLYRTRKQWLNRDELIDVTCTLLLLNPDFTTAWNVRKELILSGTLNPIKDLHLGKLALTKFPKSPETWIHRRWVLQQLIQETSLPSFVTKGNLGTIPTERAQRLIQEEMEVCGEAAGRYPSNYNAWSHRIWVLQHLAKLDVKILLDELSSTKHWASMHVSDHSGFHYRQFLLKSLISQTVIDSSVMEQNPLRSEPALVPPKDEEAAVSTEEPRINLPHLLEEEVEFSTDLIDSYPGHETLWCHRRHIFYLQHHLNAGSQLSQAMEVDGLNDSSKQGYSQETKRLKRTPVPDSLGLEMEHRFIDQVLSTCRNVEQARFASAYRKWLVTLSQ

The targets below were run with ClCC(=O)N[C@@H]1CCCc2ccccc12 (assay: log2 mean competition ratio of IA-DTB cysteine labelling (DMSO/compound) (log2 ratio); higher = stronger cysteine engagement by compound). Conditions: 50 µM; treatment time: 4 h; cell line lysate: HEK293T.
Procedure: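 IA-DTB competitive cysteine chemoproteomics in HEK293T RIPA lysate. Lysates were treated with compound 29 or 30 at 50 or 200 µM for 4 h, then IA-DTB (500 µM, 1 h), trypsin-digested, NeutrAvidin-enriched and analysed by diaPASEF. Competition ratio = intensity DMSO / intensity compound (n=4 treated, n=64 DMSO); binding: mean log2 CR ≥ 1 and p ≤ 0.05 plus QC filters. Target is the cysteine site.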
In the case of R3HCC1L C469, the “log2 mean competition ratio” value is reported as 0.316. In the case of PWP1 C329 (UniProt Q13610), the “log2 mean competition ratio” value is reported as 0.149. With RAD50 C133 the “log2 mean competition ratio” value was 0.019. In the case of PTPN13 C588 (UniProt Q12923), the “log2 mean competition ratio” value is reported as -0.0631. In the case of PUM2 C169, the “log2 mean competition ratio” value is reported as -0.135. In the case of PTPN13 C798 (UniProt Q12923), the “log2 mean competition ratio” value is reported as 0.256. In the case of QARS1 C556, A0A0U1RR66, the “log2 mean competition ratio” value is reported as 0.427. With RAD54B C789 (UniProt Q9Y620) the “log2 mean competition ratio” value was -0.311. For PSMC2 C236 (UniProt P35998), the “log2 mean competition ratio” value was -0.182. For R3HCC1 C78 (UniProt Q9Y3T6+R3HCC1), the “log2 mean competition ratio” value was -0.126. PTPN13 C1705 (UniProt Q12923) was tested, and the “log2 mean competition ratio” value was -0.125. With PXDC1 C115 the “log2 mean competition ratio” value was 0.11. With PSMD1 C141 the “log2 mean competition ratio” value was -0.0997. RABGAP1 C476 (UniProt Q9Y3P9) was tested, and the “log2 mean competition ratio” value was -0.228. In the case of RAB11FIP2 C384, the “log2 mean competition ratio” value is reported as -0.227. With PRRC2C C895 (UniProt Q9Y520) the “log2 mean competition ratio” value was -0.467. With PSMA6 C78 (UniProt P60900) the “log2 mean competition ratio” value was -0.233. With RAB39A C185 the “log2 mean competition ratio” value was -0.188. In the case of RAB39B C125 (UniProt Q96DA2), the “log2 mean competition ratio” value is reported as -0.047. For PTAR1 C37 (UniProt Q7Z6K3), the “log2 mean competition ratio” value was 0.0593.

Same assay, conditions: 200 µM; treatment time: 4 h; cell line lysate: HEK293T
In the case of R3HCC1L C469, the “log2 mean competition ratio” value is reported as 0.282. For PWP1 C329 (UniProt Q13610), the “log2 mean competition ratio” value was -0.201. For RAD50 C133, the “log2 mean competition ratio” value was 0.273. With PTPN13 C588 (UniProt Q12923) the “log2 mean competition ratio” value was -0.141. In the case of PUM2 C169, the “log2 mean competition ratio” value is reported as 0.0548. With PTPN13 C798 (UniProt Q12923) the “log2 mean competition ratio” value was 0.386. QARS1 C556, A0A0U1RR66 was tested, and the “log2 mean competition ratio” value was 0.102. With RAD54B C789 (UniProt Q9Y620) the “log2 mean competition ratio” value was 0.0546. With PSMC2 C236 (UniProt P35998) the “log2 mean competition ratio” value was 0.043. With R3HCC1 C78 (UniProt Q9Y3T6+R3HCC1) the “log2 mean competition ratio” value was 0.128. For PTPN13 C1705 (UniProt Q12923), the “log2 mean competition ratio” value was 0.116. With PXDC1 C115 the “log2 mean competition ratio” value was 0.0529. With PSMD1 C141 the “log2 mean competition ratio” value was -0.0931. With RABGAP1 C476 (UniProt Q9Y3P9) the “log2 mean competition ratio” value was 0.0088. For RAB11FIP2 C384, the “log2 mean competition ratio” value was -0.0667. For PRRC2C C895 (UniProt Q9Y520), the “log2 mean competition ratio” value was 0.521. For PSMA6 C78 (UniProt P60900), the “log2 mean competition ratio” value was -0.0557. With RAB39A C185 the “log2 mean competition ratio” value was 0.19. For RAB39B C125 (UniProt Q96DA2), the “log2 mean competition ratio” value was 0.378. With PTAR1 C37 (UniProt Q7Z6K3) the “log2 mean competition ratio” value was 0.27.
